1 molecule from publication PMC8990465 can be followed below.

These are yes or no findings as the source states them, for the method shown. Binding seen in cells or lysates may run through a third protein. A result given as binding can be weak or reduced; the word gives no strength.

In this test the target is SIRT3 (NAD-dependent protein deacetylase sirtuin-3, mitochondrial) (human (endogenous in Caki-1)). As to the kind of experiment: co-IP; SIRT3 antibody overnight at 4 °C, then protein A/G magnetic beads 2 h at room temperature; mitochondria of CLDN10 overexpression and control Caki-1 cells; western blot for ATP5O. For orientation: Immunoblotting shows a protein as a band on a membrane.

B1: ATP5O protein (ATP synthase subunit O, mitochondrial) (protein, UniProt P48047 24-213)
chain: FAKLVRPPVQVYGIEGRYATALYSAASKQNKLEQVEKELLRVAQILKEPKVAASVLNPYVKRSIKVKSLNDITAKERFSPLTTNLINLLAENGRLSNTQGVVSAFSTMMSVHRGEVPCTVTSASPLEEATLSELKTVLKSFLSQGQVLKLEAKTDPSILGGMIVRIGEKYVDMSVKTKIQKLGRAMREIV
B1: the binding entry is on record as “binds”.
